Reference: publication PMC6081406 (Nature Communications, 2018)
These are yes or no findings as the source states them, for the method shown. For some of these results: In cells and extracts the contact can be indirect. Some entries that bind do so weakly or less than the wild type. For some of these results: Tags and fused reporters may be left off the sequences shown.

T1: pHluorin-tagged full-length GABAAR α2 subunit (UniProt P26048)
T1 sequence: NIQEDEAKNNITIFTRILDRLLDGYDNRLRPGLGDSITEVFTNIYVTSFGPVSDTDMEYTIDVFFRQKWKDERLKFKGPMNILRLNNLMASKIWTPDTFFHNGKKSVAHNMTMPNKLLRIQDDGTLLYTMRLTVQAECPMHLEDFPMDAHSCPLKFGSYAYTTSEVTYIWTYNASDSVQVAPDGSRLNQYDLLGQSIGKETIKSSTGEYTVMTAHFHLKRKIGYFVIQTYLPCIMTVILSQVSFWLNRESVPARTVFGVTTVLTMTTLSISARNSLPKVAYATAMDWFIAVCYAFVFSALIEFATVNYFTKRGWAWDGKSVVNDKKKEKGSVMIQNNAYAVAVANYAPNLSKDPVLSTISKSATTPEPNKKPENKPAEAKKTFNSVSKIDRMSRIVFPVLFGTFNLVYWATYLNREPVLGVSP

B1: SH3 domain of collybistin (CB-SH3) (domain or fragment, murine, UniProt Q3UTH8 4-72, looked up)
chain: LITGDSIVSAEAVWDHVTMANRELAFKAGDVIKVLDASNKDWWWGQIDDEEGWFPASFVRLWVNQEDGV
notes: collybistin CB1, murine, residues 4-72, encompassing the complete SH3 domain (residues 8-67); pGEX construct provided by T. Soykan (Brose lab); source: E. coli, purified (GST tag, in-situ thrombin cleavage, Superdex 200 SEC); not shown: GST, N-terminal, cleaved
B2: full-length collybistin (CB) (protein, UniProt Q3UTH8 1-516)
chain: MYDLITGDSIVSAEAVWDHVTMANRELAFKAGDVIKVLDASNKDWWWGQIDDEEGWFPASFVRLWVNQEDGVEEGPSDVQNGHLDPNSDCLCLGRPLQNRDQMRANVINEIMSTERHYIKHLKDICEGYLKQCRKRRDMFSDEQLKVIFGNIEDIYRFQMGFVRDLEKQYNNDDPHLSEIGPCFLEHQDGFWIYSEYCNNHLDACMELSKLMKDSRYQHFFEACRLLQQMIDIAIDGFLLTPVQKICKYPLQLAELLKYTAQDHSDYRYVAAALAVMRNVTQQINERKRRLENIDKIAQWQASVLDWEGEDILDRSSELIYTGEMAWIYQPYGRNQQRVFFLFDHQMVLCKKDLIRRDILYYKGRIDMDKYEVIDIEDGRDDDFNVSMKNAFKLHNKETEEVHLFFAKKLEEKIRWLRAFREERKMVQEDEKIGFEISENQKRQAAMTVRKASKQKGVNSARSVPPSYPPPQDPLNQGQYLVPDGIAQSQVFEFTEPKRSQSPFWQNFSRLTPFKK

Assays:
[1] = target: GABAAR α2 subunit large cytoplasmic loop (AA 335-419) (UniProt P23576); assay: ITC; α2L in the presence of GephE titrated with the SH3 domain; both purified
[2] = target: GABAAR α2 subunit large cytoplasmic loop (AA 335-419) (UniProt P23576); assay: SEC; analytical size exclusion chromatography; single proteins or equimolar mixtures of the SH3 domain with α1L, α2L or α3L; fractions analysed by SDS-PAGE; both purified
[3] = target: GABAAR α2 subunit large cytoplasmic loop (AA 335-419) (UniProt P23576); assay: native gel or EMSA; native agarose gel electrophoresis (NAGE), Coomassie staining; CB-SH3 alone or mixed with a threefold excess of GABAAR intracellular domains; both purified
[4] = target: T1, pHluorin-tagged full-length GABAAR α2 subunit; assay: co-IP; GFP bead trap from lysates of HEK293T cells transfected with full-length CB and pHluorin-tagged α2 or α2–1; 20 mM Tris-HCl pH 8, 150 mM NaCl, 1% triton, overnight at 4 °C; western blot

Row | Binder | binding [1] | binding [2] | binding [3] | binding [4]
1 | B1 | binds | binds | binds | –
2 | B2 | – | – | – | binds
